PubChem BioAssay AID1159578 – Peter MacCallum Cancer Centre | 2015

Screen: 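siRNA pools altering how lymphatic endothelial cells close a scratch wound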 (primary screen)
Cells: human lymphatic endothelial cells
Reagent: siRNA pool against human genes, 40 nM
Timing: 48 h after transfection
Measurement: 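Cells stained with dye and imaged after a scratch; covered wound area and nuclei counted, duplicates averaged, migration set against mock wells and turned into a robust z-score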
Scale: migration robust z-score: higher = faster migration into the scratch; migration relative to mock: higher = more scratch area covered than mock; nuclei per well: higher = more cells in the well
Call rule: 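Migration changed when robust z exceeds 2 or falls below -2 and mean nuclei number is at least 3300; otherwise not called changed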
Calls: active = migration changed; inactive = no migration change, or too few cells
The whole screen tested about 18,000 reagents; shown is an unselected part. In the full data, about 1,030 (5.7%) are marked active. 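Inactive calls also include pools with fewer than 3300 nuclei, whose migration was not assessed.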 Raw values vary from plate to plate and are shown uncorrected.

target gene | PubChem SID | migration robust z-score | migration class with cell-count check | migration relative to mock | nuclei per well, duplicate mean | call
QPRT (GeneID 23475) | SID255356266 | 0.49 | migration z between -2 and 2; enough cells | 0.9 | 5516 | inactive
BCAS2 (GeneID 10286) | SID255354967 | 1.35 | migration z between -2 and 2; enough cells | 1.06 | 7460 | inactive
ATP4B (GeneID 496) | SID255348458 | 0.25 | migration z between -2 and 2; enough cells | 0.95 | 7081 | inactive
PXT1 (GeneID 222659) | SID255364355 | -1.2 | migration z between -2 and 2; enough cells | 0.57 | 4955 | inactive
ATP10D (GeneID 57205) | SID255359337 | -1.48 | migration z between -2 and 2; enough cells | 0.52 | 6294 | inactive
KRTAP12-3 (GeneID 386683) | SID255365419 | 1.46 | migration z between -2 and 2; enough cells | 1.26 | 6200 | inactive
LIPA (GeneID 3988) | SID255350766 | 0.99 | migration z between -2 and 2; enough cells | 1 | 6550 | inactive
JAK1 (GeneID 3716) | SID255350574 | 0.1 | migration z between -2 and 2; enough cells | 0.82 | 5912 | inactive
BEND3 (GeneID 57673) | SID255359541 | 0.53 | migration z between -2 and 2; enough cells | 1.02 | 4674 | inactive
NRBF2 (GeneID 29982) | SID255357260 | -0.42 | migration z between -2 and 2; enough cells | 0.73 | 6006 | inactive
IQCB1 (GeneID 9657) | SID255354449 | 1.01 | migration z between -2 and 2; enough cells | 1.15 | 5266 | inactive
RNF146 (GeneID 81847) | SID255360960 | 1.09 | migration z between -2 and 2; enough cells | 1.02 | 6406 | inactive
RPP38-DT (GeneID 221060) | SID255364267 | 0.84 | migration z between -2 and 2; enough cells | 1.1 | 4206 | inactive
OR2AG2 (GeneID 338755) | SID255365002 | -1.89 | migration z between -2 and 2; enough cells | 0.4 | 4993 | inactive
FBXO2 (GeneID 26232) | SID255356724 | -0.34 | migration z between -2 and 2; enough cells | 0.74 | 5064 | inactive
MLF2 (GeneID 8079) | SID255353384 | -1.03 | migration z between -2 and 2; enough cells | 0.62 | 4385 | inactive
SLC16A3 (GeneID 9123) | SID255354052 | -0.83 | migration z between -2 and 2; enough cells | 0.64 | 5281 | inactive
TCAIM (GeneID 285343) | SID255364844 | 3.08 | migration z above 2; enough cells | 1.68 | 5545 | active
DEFB107B (GeneID 503614) | SID255366021 | 0.3 | migration z between -2 and 2; enough cells | 0.97 | 5634 | inactive
CMTM2 (GeneID 146225) | SID255363274 | 0.03 | migration z between -2 and 2; enough cells | 0.89 | 6480 | inactive
DEGS1 (GeneID 8560) | SID255353649 | -0.44 | migration z between -2 and 2; enough cells | 0.72 | 5894 | inactive
TBC1D22A (GeneID 25771) | SID255356452 | 0.72 | migration z between -2 and 2; enough cells | 1.07 | 5222 | inactive
ZNF665 (GeneID 79788) | SID255360465 | 0.58 | migration z between -2 and 2; enough cells | 1.04 | 6366 | inactive
FBXL8 (GeneID 55336) | SID255358611 | -1.77 | migration z between -2 and 2; enough cells | 0.46 | 5417 | inactive
POLR2H (GeneID 5437) | SID255351688 | -0.2 | migration z between -2 and 2; enough cells | 0.76 | 5064 | inactive
KRT18 (GeneID 3875) | SID255350694 | 0.08 | migration z between -2 and 2; enough cells | 0.9 | 4201 | inactive
MARCKS (GeneID 4082) | SID255350831 | 0.39 | migration z between -2 and 2; enough cells | 0.88 | 6392 | inactive
CDK7 (GeneID 1022) | SID255348842 | -2.54 | migration z below -2; enough cells | 0.32 | 3744 | active
SLC47A1 (GeneID 55244) | SID255358532 | -0.73 | migration z between -2 and 2; enough cells | 0.7 | 5841 | inactive
DDX53 (GeneID 168400) | SID255363867 | 0.04 | migration z between -2 and 2; enough cells | 0.9 | 5652 | inactive
RAE1 (GeneID 8480) | SID255353582 | 1.04 | migration z between -2 and 2; enough cells | 1 | 5493 | inactive
ZNF787 (GeneID 126208) | SID255362692 | -1.02 | migration z between -2 and 2; enough cells | 0.62 | 5492 | inactive
NMNAT1 (GeneID 64802) | SID255360013 | -0.18 | migration z between -2 and 2; enough cells | 0.77 | 5936 | inactive
VHLL (GeneID 391104) | SID255365676 | 0.3 | migration z between -2 and 2; enough cells | 0.97 | 5677 | inactive
FAM177A1 (GeneID 283635) | SID255364694 | 0.02 | migration z between -2 and 2; enough cells | 0.88 | 4694 | inactive
HIC2 (GeneID 23119) | SID255356003 | 0.14 | migration z between -2 and 2; enough cells | 0.92 | 5045 | inactive
TNFRSF10A (GeneID 8797) | SID255353819 | -0.39 | migration z between -2 and 2; enough cells | 0.73 | 4238 | inactive
MT1G (GeneID 4495) | SID255351049 | 1.75 | migration z between -2 and 2; enough cells | 1.34 | 5308 | inactive
RETNLB (GeneID 84666) | SID255361453 | 0.48 | migration z between -2 and 2; enough cells | 1.01 | 5294 | inactive
RFWD3 (GeneID 55159) | SID255358457 | -1.97 | migration z between -2 and 2; enough cells | 0.42 | 4794 | inactive
FIGNL2 (GeneID 401720) | SID255365804 | 0.31 | migration z between -2 and 2; enough cells | 0.96 | 4362 | inactive
DAO (GeneID 1610) | SID255349236 | -0.08 | migration z between -2 and 2; enough cells | 0.79 | 5164 | inactive
U2AF1L4 (GeneID 199746) | SID255364007 | -3.17 | migration z below -2; enough cells | 0.06 | 5868 | active
TMEM106C (GeneID 79022) | SID255360167 | -1.54 | migration z between -2 and 2; enough cells | 0.48 | 6819 | inactive
COX19 (GeneID 90639) | SID255361850 | 1.02 | migration z between -2 and 2; enough cells | 1.15 | 6786 | inactive
CCT8 (GeneID 10694) | SID255355292 | -2.02 | migration z below -2; enough cells | 0.42 | 3626 | active
PDE3B (GeneID 5140) | SID255351466 | -0.6 | migration z between -2 and 2; enough cells | 0.69 | 5728 | inactive
CASKIN1 (GeneID 57524) | SID255359441 | -0.32 | migration z between -2 and 2; enough cells | 0.8 | 5779 | inactive
SLC25A40 (GeneID 55972) | SID255358974 | -0.66 | migration z between -2 and 2; enough cells | 0.72 | 4861 | inactive
SIGIRR (GeneID 59307) | SID255359681 | 1.16 | migration z between -2 and 2; enough cells | 1.19 | 5322 | inactive
KIR3DL1 (GeneID 3811) | SID255350648 | 0.19 | migration z between -2 and 2; enough cells | 0.94 | 4922 | inactive
NLGN4Y (GeneID 22829) | SID255355800 | -0.96 | migration z between -2 and 2; enough cells | 0.62 | 5743 | inactive
TNC (GeneID 3371) | SID255350367 | 0.21 | migration z between -2 and 2; enough cells | 0.84 | 5445 | inactive
APOC1 (GeneID 341) | SID255348349 | 1.04 | migration z between -2 and 2; enough cells | 1 | 5420 | inactive
ZNF146 (GeneID 7705) | SID255353246 | 0.24 | migration z between -2 and 2; enough cells | 0.94 | 6431 | inactive
LETM2 (GeneID 137994) | SID255363035 | -0.68 | migration z between -2 and 2; enough cells | 0.71 | 6150 | inactive
CRACR2A (GeneID 84766) | SID255361498 | 2.21 | migration z above 2; enough cells | 1.46 | 6503 | active
MKNK1 (GeneID 8569) | SID255353657 | -0.73 | migration z between -2 and 2; enough cells | 0.66 | 5247 | inactive
TREML4 (GeneID 285852) | SID255364884 | 1.38 | migration z between -2 and 2; enough cells | 1.25 | 5865 | inactive
ST6GALNAC2 (GeneID 10610) | SID255355222 | -0.99 | migration z between -2 and 2; enough cells | 0.63 | 5352 | inactive
LCE3D (GeneID 84648) | SID255361440 | -0.84 | migration z between -2 and 2; enough cells | 0.67 | 4322 | inactive
CKAP4 (GeneID 10970) | SID255355489 | 1.38 | migration z between -2 and 2; enough cells | 1.25 | 3464 | inactive
UPK1B (GeneID 7348) | SID255353048 | 1.2 | migration z between -2 and 2; enough cells | 1.19 | 6217 | inactive
CENPU (GeneID 79682) | SID255360385 | 0.92 | migration z between -2 and 2; enough cells | 1.12 | 5334 | inactive
APOBEC3C (GeneID 27350) | SID255357051 | -0.54 | migration z between -2 and 2; enough cells | 0.74 | 6162 | inactive
DENND6A (GeneID 201627) | SID255364087 | 1.02 | migration z between -2 and 2; enough cells | 1.14 | 6426 | inactive
CTCF (GeneID 10664) | SID255355270 | 0.31 | migration z between -2 and 2; enough cells | 0.86 | 4979 | inactive
CASP9 (GeneID 842) | SID255348703 | 1.15 | migration z between -2 and 2; enough cells | 1.02 | 5287 | inactive
NEDD1 (GeneID 121441) | SID255362525 | -0.55 | migration z between -2 and 2; enough cells | 0.75 | 4928 | inactive
GUCY2D (GeneID 3000) | SID255350118 | -1.95 | migration z between -2 and 2; enough cells | 0.43 | 3809 | inactive
SPTBN2 (GeneID 6712) | SID255352615 | 0.74 | migration z between -2 and 2; enough cells | 1.08 | 5958 | inactive
STK26 (GeneID 51765) | SID255357895 | -0.52 | migration z between -2 and 2; enough cells | 0.7 | 3911 | inactive
C1orf53 (GeneID 388722) | SID255365519 | -0.2 | migration z between -2 and 2; enough cells | 0.83 | 5544 | inactive

Ordered by “nuclei per well, duplicate mean” (high to low): some entries from above.
target gene | PubChem SID | migration robust z-score | migration class with cell-count check | migration relative to mock | nuclei per well, duplicate mean | call
CRACR2A (GeneID 84766) | SID255361498 | 2.21 | migration z above 2; enough cells | 1.46 | 6503 | active
ZNF146 (GeneID 7705) | SID255353246 | 0.24 | migration z between -2 and 2; enough cells | 0.94 | 6431 | inactive
LETM2 (GeneID 137994) | SID255363035 | -0.68 | migration z between -2 and 2; enough cells | 0.71 | 6150 | inactive
CASKIN1 (GeneID 57524) | SID255359441 | -0.32 | migration z between -2 and 2; enough cells | 0.8 | 5779 | inactive
NLGN4Y (GeneID 22829) | SID255355800 | -0.96 | migration z between -2 and 2; enough cells | 0.62 | 5743 | inactive
PDE3B (GeneID 5140) | SID255351466 | -0.6 | migration z between -2 and 2; enough cells | 0.69 | 5728 | inactive
TNC (GeneID 3371) | SID255350367 | 0.21 | migration z between -2 and 2; enough cells | 0.84 | 5445 | inactive
APOC1 (GeneID 341) | SID255348349 | 1.04 | migration z between -2 and 2; enough cells | 1 | 5420 | inactive
SIGIRR (GeneID 59307) | SID255359681 | 1.16 | migration z between -2 and 2; enough cells | 1.19 | 5322 | inactive
KIR3DL1 (GeneID 3811) | SID255350648 | 0.19 | migration z between -2 and 2; enough cells | 0.94 | 4922 | inactive
SLC25A40 (GeneID 55972) | SID255358974 | -0.66 | migration z between -2 and 2; enough cells | 0.72 | 4861 | inactive
CCT8 (GeneID 10694) | SID255355292 | -2.02 | migration z below -2; enough cells | 0.42 | 3626 | active
